# Test results taken from patent publication US10159670B2, “Methods of diagnosing and treating motor neuron diseases and other cellular stress-related diseases” (priority 2012, dated 2018).
# How the values were obtained:
# [1] = test system: NSC-34 cells transfected with FUS R495X, TDP-43 A315T or SOD1 G93A; test: Ratio of pre-miRNA to miRNA levels in NSC-34 cells transfected with ALS-causing mutants; type: cell-based; conditions: 100 μM for 72 hrs
# [2] = test system: TDP-43 A315T mouse model of ALS; conditions: 200 mg/kg-bodyweight/day
compound,measurement,setting,value
CCn1cc(C(=O)O)c(=O)c2cc(F)c(N3CCNCC3)nc21 [Enoxacin],ratio of pre-miRNAs to miRNAs,[1],ameliorated
same,Rotarod performance on day 62 relative to day 48,[2],improved performance
